For at least one entry, the source does not settle the construct or the ends of the probe. For part of these data: Negatives hold for the conditions tested. For part of these data: Weaker means in comparison with the reference protein, sequence or condition of that experiment.
How the values were obtained:
Experiment in all cases: EMSA
Mcm2-7 complex (mouse) = conditions: 0.5 mM ATPgS, very weak versus Mcm4/6/7, EMSA: 25 mM Tris-HCl pH 7.5, 40 mM Na acetate, 10 mM Mg acetate, 20 mM 2-mercaptoethanol, 0.25 mg/ml BSA, 30 C 30 min, recombinant protein, protein details: Mcm7-His6, His6-Mcm4, Mcm5-His6-Flag, label: 5'-32P, single-stranded DNA
GINS complex (human) = conditions: 0.5 mM ATPgS, 25-400 nM GINS, weak binding, EMSA: 25 mM Tris-HCl pH 7.5, 40 mM Na acetate, 10 mM Mg acetate, 20 mM 2-mercaptoethanol, 0.25 mg/ml BSA, 30 C 30 min, recombinant protein, label: 5'-32P, single-stranded DNA
[1] = test system: Mcm4/6/7 complex + GINS complex; conditions: 0.5 mM ATPgS, GINS does not change Mcm4/6/7-DNA migration, no joint complex (Mcm4/6/7 itself binds), EMSA: 25 mM Tris-HCl pH 7.5, 40 mM Na acetate, 10 mM Mg acetate, 20 mM 2-mercaptoethanol, 0.25 mg/ml BSA, 30 C 30 min, recombinant protein, protein details: His6-Mcm4, Mcm7-Flag, label: 5'-32P, single-stranded DNA

Chains of the proteins cited; added tags and fusions are not shown. Chains listed by the source or under a name are the forms on record and can include a tag or linker.
GINS complex (human), one chain, as listed by the source, chain 1 of 4: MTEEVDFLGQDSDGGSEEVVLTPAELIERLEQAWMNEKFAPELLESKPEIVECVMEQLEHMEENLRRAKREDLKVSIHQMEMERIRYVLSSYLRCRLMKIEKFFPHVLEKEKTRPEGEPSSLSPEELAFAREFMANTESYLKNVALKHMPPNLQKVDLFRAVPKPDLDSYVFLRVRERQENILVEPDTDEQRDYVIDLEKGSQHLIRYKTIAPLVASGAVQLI
GINS complex (human), one chain, as listed by the source, chain 4 of 4: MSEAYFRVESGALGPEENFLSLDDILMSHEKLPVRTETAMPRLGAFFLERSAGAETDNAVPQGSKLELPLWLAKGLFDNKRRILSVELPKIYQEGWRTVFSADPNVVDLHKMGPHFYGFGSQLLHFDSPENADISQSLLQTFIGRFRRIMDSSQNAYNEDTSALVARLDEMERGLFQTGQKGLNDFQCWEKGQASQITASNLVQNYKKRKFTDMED
GINS complex (human), one chain, as listed by the source, chain 3 of 4: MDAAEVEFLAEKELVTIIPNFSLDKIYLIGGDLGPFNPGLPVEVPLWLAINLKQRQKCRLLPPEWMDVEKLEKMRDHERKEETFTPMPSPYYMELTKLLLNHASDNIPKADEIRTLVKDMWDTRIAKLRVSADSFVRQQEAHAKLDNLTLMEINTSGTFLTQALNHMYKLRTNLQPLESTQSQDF
GINS complex (human), one chain, as listed by the source, chain 2 of 4: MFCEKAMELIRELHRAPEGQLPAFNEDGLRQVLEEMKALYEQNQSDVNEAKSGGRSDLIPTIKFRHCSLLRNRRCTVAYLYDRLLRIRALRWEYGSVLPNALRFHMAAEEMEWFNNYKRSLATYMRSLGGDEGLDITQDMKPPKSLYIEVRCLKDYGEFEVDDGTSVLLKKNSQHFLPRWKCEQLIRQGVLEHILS

CCACACATGATTTGTTTGCTCCCTGAAATGATCTATATTTAATATATAATGTATATTCCCTCGGGATTTTTTATTTTGTGTTATTCCACGGCATGAAAAACAAAAAACATTCTTCTCATCCTTGGTCCCTCA [132-mer pyrimidine-rich oligonucleotide]
binding result (Mcm2-7 complex (mouse)): binds more weakly | binding result (GINS complex (human)): binds more weakly | binding result [1]: no binding

Reference: PMC3748026
